Laboratory results: PubChem BioAssay AID504784 (Drosophila RNAi Screening Center, 2011)

- Test: 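Fly genes whose silencing alters how much lipid cells keep in droplets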 (primary screen)
- System: Drosophila Kc167 embryonic cells
- Reagent: long dsRNA against Drosophila genes, about 250 ng dsRNA per well
- Timing: 4 days
- Challenge: cells fed 400 µM oleic acid bound to BSA
- Measured: 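Cells imaged and segmented; ratio of lipid droplet area to nuclear area, log-transformed, then normalised as a B-score over the screen; higher means more stored lipid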
- Direction: droplet/nuclear area B-score: higher = more stored lipid (overstorage)
The screen tested about 17,000 reagents; shown is a random part of those that have a named target and a result. 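Each column is one replicate's B-score; the combined score over replicates was not deposited, so single values may mislead.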 Names joined by + are all predicted targets of the reagent. Further read-outs or replicates are left out here. No sequences are given here.

gene	amplicon	droplet/nuclear area B-score, replicate 1
CG13313	DRSC09984	1.24
CG31368	DRSC14949	0.731
CG31368	DRSC14951	0.197
Spn75F (Serpin 75F)	DRSC09589	0.529
CG7017	DRSC10762	0.0916
Jheh2 (Juvenile hormone epoxide hydrolase 2)	DRSC06530	0.985
CG31752	DRSC22599	-0.0281
CG9014	DRSC01979	-1.69
CG31224	DRSC15272	4.35
CG31224	DRSC16290	1.76
InR (Insulin-like receptor)	DRSC16717	0.0875
Ric (Ras-related protein interacting with calmodulin)	DRSC07532	-1.97
fs(1)Yb (female sterile (1) Yb)	DRSC18777	-0.307
capt (capulet)	DRSC00676	-0.398
capt (capulet)	DRSC00806	-0.0375
Eph (Eph receptor tyrosine kinase)	DRSC17164	0.808
CG7264	DRSC10793	-0.43
Dys (Dystrophin)	DRSC15260	0.836
Dys (Dystrophin)	DRSC16218	0.551
Dys (Dystrophin)	DRSC16219	-0.777
Dys (Dystrophin)	DRSC16220	-0.143
Dys (Dystrophin)	DRSC16935	0.808
ppk6 (pickpocket 6)	DRSC06062	-0.156
ACC (Acetyl-CoA carboxylase)	DRSC06059	1.49
ACC (Acetyl-CoA carboxylase)	DRSC07249	-2.32
Wbp2 (WW domain binding protein 2)	DRSC09821	3.87
CG12702	DRSC19487	-0.322
CG15207 (retired record)	DRSC19653	-1.64
CG15207 (retired record)	DRSC22791	0.288
Ir51a (Ionotropic receptor 51a)	DRSC06256	0.85
Acsx1R (Acyl-CoA synthetase X1 R)	DRSC14339	0.436
beat-VII (beaten path VII)	DRSC13780	2.76
beat-VII (beaten path VII)	DRSC14743	0.608
beat-VII (beaten path VII)	DRSC14744	0.363
beat-VII (beaten path VII)	DRSC22825	-2.22
eag (ether a go-go)	DRSC19067	0.378
eag (ether a go-go)	DRSC20328	-0.889

Laid out differently: entries from further up
| gene | amplicon | droplet/nuclear area B-score, replicate 1 |
| --- | --- | --- |
| Dys (Dystrophin) | DRSC15260 | 0.836 |
| Dys (Dystrophin) | DRSC16218 | 0.551 |
| Dys (Dystrophin) | DRSC16219 | -0.777 |
| Dys (Dystrophin) | DRSC16220 | -0.143 |
| Dys (Dystrophin) | DRSC16935 | 0.808 |
| ppk6 (pickpocket 6) | DRSC06062 | -0.156 |
| ACC (Acetyl-CoA carboxylase) | DRSC06059 | 1.49 |
| ACC (Acetyl-CoA carboxylase) | DRSC07249 | -2.32 |
| Wbp2 (WW domain binding protein 2) | DRSC09821 | 3.87 |

Further results follow:
gene	amplicon	droplet/nuclear area B-score, replicate 1
CG18682 (retired record)	DRSC15373	0.0758
CG18682 (retired record)	DRSC15374	-0.439
Taf11 (TBP-associated factor 11)	DRSC03448	-0.604
Ptp61F (Protein tyrosine phosphatase 61F)	DRSC08683	0.351
yellow-e	DRSC12966	0.024
yellow-e	DRSC16563	-1.67
Dop1R2 (Dopamine 1-like receptor 2)	DRSC13958	0.642
Dop1R2 (Dopamine 1-like receptor 2)	DRSC15379	0.00581
prod (proliferation disrupter)	DRSC07667	1.43
CG7639	DRSC07026	-0.2
CG14024	DRSC00868	-0.751
CG14024	DRSC02354	-0.000898
GstE3 (Glutathione S transferase E3)	DRSC06673	-0.443
CG3650	DRSC04401	-0.932
GstE10 (Glutathione S transferase E10)	DRSC06671	1.01
CG13921	DRSC08390	-1.02
CG15773	DRSC18079	0.0226
CG18268 + CG3014	DRSC15319	-0.0108
mlt (mulet)	DRSC06120	0.0151
robo3 (roundabout 3)	DRSC00374	1.46
robo3 (roundabout 3)	DRSC00375	3.29
robo3 (roundabout 3)	DRSC00684	-0.426
CG17996 + Tsen2	DRSC02650	0.281
veg (retired record)	DRSC07714	-0.976
CG17977	DRSC06700	-0.491
RIOK1 (RIO kinase 1)	DRSC09853	-0.0133
Gapdh2 (Glyceraldehyde 3 phosphate dehydrogenase 2)	DRSC20246	-1.81
Taf13 (TBP-associated factor 13)	DRSC02106	1.19
Or67a (Odorant receptor 67a)	DRSC11240	-0.513
Gr97a (Gustatory receptor 97a)	DRSC13802	-0.556
CG8777	DRSC07263	1.46
CG10051	DRSC05959	-0.334
Dp (DP transcription factor)	DRSC07402	2.45
CG14929 + CG4970 + CG14930	DRSC02412	0.926
Polr3B (RNA polymerase III subunit B)	DRSC07536	2.04
Nepl19 (Neprilysin-like 19)	DRSC14875	1.07
CG8372	DRSC03086	0.887
PyK (Pyruvate kinase)	DRSC16806	-2.59
hydra	DRSC20497	0.0562
CG6928	DRSC10749	-2.76
CG13067	DRSC09950	1.61
CG5721	DRSC06945	-1.16
Gbeta76C (G protein beta subunit 76C)	DRSC11174	2.3
SP1173	DRSC11277	0.553
CG3119	DRSC00569	-0.177
Lcp65Af	DRSC11213	-1.46
CG42496 + Ppcdc	DRSC03886	2.62
CG9689	DRSC18440	-0.33
Fbl6 (F-box and leucine-rich repeat protein 6)	DRSC06335	-0.829
Yp2 (Yolk protein 2)	DRSC18732	-0.0109
raw	DRSC03599	-0.185
raw	DRSC03600	2.53
rb (ruby)	DRSC18826	-0.00975
Wdr92 (WD repeat domain 92)	DRSC10187	0.466
CG7329	DRSC03046	-0.00215
CG13318	DRSC14581	-0.106
Fip1 (Factor interacting with poly(A) polymerase 1)	DRSC12147	-0.82
Jhbp5 (Juvenile hormone binding protein 5)	DRSC14240	0.222
Calx (Na/Ca-exchange protein)	DRSC13457	0.263
Calx (Na/Ca-exchange protein)	DRSC13459	-1.64
Calx (Na/Ca-exchange protein)	DRSC16599	1.54
Calx (Na/Ca-exchange protein)	DRSC21850	1.61
CG5346	DRSC15778	0.177
CG3600 (retired record)	DRSC18599	1.14
Odc2 (Ornithine decarboxylase 2)	DRSC07483	-0.0394
CG12974	DRSC11684	-0.129
dikar	DRSC09699	-0.665
dikar	DRSC22261	-0.323
